Measurements as given in publication PMC8751613.
No constants are given. Whether binding was seen depends on the method and setting. In cells and extracts the contact can be indirect. Some binding calls cover weakened binding; strength is not graded here.

Chains of the proteins cited; added tags and fusions are not shown.
UniProt P29350: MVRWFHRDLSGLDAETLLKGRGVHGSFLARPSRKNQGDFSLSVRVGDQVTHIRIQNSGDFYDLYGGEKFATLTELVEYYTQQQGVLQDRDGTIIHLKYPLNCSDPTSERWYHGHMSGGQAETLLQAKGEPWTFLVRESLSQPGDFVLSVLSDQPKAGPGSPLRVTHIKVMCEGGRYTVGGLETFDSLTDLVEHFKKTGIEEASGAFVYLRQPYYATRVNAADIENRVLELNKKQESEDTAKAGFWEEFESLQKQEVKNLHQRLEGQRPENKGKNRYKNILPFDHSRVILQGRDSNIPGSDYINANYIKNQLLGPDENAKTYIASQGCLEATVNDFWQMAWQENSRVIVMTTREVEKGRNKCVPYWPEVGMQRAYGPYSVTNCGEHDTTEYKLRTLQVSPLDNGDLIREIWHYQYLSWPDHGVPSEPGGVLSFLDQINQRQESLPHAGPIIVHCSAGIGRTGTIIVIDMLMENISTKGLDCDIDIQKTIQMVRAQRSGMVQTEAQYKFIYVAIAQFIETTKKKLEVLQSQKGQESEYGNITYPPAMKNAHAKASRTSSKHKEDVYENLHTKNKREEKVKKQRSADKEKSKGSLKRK
UniProt P49841: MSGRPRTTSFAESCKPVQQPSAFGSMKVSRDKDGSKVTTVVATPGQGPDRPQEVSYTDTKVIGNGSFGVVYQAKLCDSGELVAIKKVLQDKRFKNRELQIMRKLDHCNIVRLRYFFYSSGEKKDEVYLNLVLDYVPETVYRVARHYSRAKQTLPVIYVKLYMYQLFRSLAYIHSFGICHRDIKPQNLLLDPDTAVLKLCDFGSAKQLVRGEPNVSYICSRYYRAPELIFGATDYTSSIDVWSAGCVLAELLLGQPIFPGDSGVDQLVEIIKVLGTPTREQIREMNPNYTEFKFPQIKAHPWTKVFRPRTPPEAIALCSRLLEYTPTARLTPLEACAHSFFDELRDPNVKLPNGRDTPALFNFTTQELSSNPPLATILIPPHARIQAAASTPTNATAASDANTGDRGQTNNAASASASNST

Biological target: PTPN6 (human (endogenous in BMSCs)) (UniProt P29350)
Test: co-IP; total protein lysate of BMSCs (IP-lysis buffer) mixed with anti-PTPN6 antibody or anti-IgG antibody and protein A/G Dynabeads at 4°C overnight; beads washed three times; immunoprecipitates subjected to western blotting

binding: binds
Substance: GSK-3β (from UniProt P49841 1-420)
